Sequences of proteins named here, by UniProt entry; tags and fusion partners are left off. A change or cut given only in a name is not applied to a line headed by its entry.
UniProt O49822: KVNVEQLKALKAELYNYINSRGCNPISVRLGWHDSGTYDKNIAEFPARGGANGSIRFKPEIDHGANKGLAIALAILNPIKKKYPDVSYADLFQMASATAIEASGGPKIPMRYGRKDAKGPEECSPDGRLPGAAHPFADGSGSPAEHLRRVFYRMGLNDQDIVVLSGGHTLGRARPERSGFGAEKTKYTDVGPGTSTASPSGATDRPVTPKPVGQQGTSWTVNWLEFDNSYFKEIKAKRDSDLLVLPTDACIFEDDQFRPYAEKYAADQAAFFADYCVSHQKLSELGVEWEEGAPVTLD
UniProt Q7PCJ6: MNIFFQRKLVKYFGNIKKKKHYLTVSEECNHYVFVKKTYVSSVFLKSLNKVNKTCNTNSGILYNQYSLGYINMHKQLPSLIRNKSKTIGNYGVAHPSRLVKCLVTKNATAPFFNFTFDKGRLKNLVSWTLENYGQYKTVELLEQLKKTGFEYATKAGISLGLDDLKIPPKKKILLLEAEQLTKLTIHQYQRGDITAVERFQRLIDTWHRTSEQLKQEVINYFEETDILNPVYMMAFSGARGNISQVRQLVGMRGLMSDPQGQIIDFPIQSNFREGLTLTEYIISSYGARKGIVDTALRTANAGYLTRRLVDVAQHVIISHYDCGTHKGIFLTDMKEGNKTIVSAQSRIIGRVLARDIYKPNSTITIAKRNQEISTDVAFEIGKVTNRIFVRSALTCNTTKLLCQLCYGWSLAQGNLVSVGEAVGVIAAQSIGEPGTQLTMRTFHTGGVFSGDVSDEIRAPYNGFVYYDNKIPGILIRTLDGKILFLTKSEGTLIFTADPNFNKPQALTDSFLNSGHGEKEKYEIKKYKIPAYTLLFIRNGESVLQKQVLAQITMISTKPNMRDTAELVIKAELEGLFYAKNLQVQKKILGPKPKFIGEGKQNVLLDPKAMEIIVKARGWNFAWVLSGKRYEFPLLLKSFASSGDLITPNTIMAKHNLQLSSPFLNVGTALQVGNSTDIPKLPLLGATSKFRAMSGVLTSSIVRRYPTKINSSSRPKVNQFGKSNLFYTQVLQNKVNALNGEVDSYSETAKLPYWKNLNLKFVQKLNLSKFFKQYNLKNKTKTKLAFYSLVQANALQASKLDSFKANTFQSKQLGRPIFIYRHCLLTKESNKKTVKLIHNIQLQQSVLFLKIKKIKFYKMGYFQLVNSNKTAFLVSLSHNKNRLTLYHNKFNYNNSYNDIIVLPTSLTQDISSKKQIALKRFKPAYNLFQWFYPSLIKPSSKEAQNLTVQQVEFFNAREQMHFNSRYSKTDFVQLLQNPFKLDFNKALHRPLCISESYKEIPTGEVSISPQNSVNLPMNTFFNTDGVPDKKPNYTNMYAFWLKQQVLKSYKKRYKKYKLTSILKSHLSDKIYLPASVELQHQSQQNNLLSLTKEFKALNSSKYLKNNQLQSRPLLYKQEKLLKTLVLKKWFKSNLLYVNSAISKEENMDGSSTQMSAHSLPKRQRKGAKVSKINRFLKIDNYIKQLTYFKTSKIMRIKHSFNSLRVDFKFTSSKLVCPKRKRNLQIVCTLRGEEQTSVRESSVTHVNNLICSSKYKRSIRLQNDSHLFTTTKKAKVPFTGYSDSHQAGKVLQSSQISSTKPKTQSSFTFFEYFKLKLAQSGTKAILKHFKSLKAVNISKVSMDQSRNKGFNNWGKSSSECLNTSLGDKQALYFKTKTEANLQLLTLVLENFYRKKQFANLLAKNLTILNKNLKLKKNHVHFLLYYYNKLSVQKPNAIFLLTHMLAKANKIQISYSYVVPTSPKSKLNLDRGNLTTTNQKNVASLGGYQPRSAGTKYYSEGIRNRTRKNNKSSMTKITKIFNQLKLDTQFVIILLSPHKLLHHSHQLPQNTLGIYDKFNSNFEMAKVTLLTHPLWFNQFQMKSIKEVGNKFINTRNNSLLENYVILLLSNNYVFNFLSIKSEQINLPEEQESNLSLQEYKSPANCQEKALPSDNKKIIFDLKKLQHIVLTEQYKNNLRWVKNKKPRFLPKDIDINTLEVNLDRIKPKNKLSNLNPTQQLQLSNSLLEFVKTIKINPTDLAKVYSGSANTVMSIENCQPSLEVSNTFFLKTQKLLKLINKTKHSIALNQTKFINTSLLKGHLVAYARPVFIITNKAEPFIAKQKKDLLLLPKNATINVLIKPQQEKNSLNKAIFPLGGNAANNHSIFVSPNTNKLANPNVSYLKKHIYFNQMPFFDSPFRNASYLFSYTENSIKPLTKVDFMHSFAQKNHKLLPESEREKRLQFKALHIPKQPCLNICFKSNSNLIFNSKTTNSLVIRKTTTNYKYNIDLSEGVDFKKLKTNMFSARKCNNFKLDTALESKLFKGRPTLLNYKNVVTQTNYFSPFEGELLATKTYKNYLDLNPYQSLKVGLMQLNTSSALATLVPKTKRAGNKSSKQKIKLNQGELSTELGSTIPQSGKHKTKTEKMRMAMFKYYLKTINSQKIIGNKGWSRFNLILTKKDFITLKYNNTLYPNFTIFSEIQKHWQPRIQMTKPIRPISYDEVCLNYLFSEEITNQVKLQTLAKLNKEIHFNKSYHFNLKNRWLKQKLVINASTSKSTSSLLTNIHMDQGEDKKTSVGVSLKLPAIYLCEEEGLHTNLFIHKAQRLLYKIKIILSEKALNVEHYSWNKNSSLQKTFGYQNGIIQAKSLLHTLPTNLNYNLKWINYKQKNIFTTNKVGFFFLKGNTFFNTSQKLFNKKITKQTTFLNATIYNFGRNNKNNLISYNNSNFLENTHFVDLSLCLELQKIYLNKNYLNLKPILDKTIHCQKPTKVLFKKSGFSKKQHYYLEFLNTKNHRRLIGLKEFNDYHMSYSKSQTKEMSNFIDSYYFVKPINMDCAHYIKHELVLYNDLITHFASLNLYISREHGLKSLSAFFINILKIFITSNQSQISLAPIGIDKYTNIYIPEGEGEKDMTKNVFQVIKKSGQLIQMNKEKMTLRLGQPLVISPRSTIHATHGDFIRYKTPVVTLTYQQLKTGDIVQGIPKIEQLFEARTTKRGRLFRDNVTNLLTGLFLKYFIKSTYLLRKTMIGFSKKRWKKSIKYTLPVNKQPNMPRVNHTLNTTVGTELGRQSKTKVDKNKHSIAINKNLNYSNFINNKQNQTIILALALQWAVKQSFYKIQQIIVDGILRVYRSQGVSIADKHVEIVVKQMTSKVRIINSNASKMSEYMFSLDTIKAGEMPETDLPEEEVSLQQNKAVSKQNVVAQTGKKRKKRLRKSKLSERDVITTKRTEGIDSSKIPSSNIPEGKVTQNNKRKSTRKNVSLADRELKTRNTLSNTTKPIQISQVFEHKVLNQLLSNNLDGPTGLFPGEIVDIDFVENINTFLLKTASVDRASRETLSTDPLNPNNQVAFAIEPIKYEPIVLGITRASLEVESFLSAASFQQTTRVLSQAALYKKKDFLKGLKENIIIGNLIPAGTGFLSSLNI
UniProt Q6PSL5: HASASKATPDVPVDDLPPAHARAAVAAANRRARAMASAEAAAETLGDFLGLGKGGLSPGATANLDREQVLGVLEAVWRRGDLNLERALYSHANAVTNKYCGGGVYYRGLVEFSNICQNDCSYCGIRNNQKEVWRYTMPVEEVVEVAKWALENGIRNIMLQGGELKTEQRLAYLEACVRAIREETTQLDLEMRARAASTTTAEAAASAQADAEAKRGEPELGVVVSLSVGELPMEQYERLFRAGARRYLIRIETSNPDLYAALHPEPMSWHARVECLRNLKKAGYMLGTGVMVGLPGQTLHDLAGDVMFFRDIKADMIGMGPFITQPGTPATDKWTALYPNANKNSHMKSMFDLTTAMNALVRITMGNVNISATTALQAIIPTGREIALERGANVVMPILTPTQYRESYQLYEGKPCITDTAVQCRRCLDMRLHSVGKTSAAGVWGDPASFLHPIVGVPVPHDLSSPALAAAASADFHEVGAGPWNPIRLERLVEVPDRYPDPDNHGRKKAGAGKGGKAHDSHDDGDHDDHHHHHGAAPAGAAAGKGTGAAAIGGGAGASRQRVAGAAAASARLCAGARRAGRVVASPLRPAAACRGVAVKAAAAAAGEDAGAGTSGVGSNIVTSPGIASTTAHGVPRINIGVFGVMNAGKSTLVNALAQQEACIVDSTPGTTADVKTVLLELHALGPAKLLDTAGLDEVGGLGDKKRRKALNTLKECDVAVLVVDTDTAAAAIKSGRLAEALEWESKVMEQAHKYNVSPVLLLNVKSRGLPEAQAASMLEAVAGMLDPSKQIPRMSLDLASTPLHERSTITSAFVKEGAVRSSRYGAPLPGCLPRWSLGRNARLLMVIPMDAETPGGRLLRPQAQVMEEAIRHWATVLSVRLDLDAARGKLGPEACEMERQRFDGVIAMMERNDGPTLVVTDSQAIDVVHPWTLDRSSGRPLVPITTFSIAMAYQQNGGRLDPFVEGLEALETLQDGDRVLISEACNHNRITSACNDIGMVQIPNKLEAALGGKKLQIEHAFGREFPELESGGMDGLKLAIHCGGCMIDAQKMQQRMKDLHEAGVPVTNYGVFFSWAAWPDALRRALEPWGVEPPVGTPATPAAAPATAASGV
UniProt A0ACM8PZH8: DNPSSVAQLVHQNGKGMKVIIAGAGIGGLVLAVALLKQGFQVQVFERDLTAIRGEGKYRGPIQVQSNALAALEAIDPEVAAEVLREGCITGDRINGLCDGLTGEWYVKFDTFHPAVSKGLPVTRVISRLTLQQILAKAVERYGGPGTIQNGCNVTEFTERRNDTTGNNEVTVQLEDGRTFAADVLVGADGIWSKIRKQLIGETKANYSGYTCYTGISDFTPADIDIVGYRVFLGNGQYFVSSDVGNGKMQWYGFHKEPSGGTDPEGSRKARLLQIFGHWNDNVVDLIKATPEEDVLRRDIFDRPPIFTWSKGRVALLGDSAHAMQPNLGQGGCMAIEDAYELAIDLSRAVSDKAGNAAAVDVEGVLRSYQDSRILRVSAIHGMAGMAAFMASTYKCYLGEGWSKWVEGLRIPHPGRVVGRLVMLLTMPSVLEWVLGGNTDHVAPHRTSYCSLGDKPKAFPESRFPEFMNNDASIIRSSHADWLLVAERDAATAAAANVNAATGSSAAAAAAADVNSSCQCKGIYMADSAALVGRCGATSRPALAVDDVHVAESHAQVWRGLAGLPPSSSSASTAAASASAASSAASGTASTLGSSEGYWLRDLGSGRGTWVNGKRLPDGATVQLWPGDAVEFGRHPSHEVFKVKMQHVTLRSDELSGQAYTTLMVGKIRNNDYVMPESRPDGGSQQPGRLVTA
UniProt Q66YD3: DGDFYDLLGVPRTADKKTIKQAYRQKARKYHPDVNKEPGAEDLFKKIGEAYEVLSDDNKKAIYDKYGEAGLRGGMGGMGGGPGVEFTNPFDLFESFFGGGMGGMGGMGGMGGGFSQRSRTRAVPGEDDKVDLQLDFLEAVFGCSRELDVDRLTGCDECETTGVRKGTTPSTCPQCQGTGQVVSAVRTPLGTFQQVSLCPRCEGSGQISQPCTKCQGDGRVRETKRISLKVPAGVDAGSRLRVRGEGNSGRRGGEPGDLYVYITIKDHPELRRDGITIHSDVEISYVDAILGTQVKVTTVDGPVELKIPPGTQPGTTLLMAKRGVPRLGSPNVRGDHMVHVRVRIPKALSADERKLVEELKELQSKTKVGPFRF
UniProt Q6VPQ2: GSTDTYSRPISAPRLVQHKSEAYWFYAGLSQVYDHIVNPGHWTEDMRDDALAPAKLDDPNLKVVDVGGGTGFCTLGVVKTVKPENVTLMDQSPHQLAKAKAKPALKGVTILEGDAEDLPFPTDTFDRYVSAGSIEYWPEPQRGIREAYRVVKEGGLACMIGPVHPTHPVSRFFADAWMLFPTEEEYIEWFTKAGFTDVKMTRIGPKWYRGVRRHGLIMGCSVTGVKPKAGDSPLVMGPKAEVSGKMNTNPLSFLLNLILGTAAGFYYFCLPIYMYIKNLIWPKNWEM
UniProt Q39603: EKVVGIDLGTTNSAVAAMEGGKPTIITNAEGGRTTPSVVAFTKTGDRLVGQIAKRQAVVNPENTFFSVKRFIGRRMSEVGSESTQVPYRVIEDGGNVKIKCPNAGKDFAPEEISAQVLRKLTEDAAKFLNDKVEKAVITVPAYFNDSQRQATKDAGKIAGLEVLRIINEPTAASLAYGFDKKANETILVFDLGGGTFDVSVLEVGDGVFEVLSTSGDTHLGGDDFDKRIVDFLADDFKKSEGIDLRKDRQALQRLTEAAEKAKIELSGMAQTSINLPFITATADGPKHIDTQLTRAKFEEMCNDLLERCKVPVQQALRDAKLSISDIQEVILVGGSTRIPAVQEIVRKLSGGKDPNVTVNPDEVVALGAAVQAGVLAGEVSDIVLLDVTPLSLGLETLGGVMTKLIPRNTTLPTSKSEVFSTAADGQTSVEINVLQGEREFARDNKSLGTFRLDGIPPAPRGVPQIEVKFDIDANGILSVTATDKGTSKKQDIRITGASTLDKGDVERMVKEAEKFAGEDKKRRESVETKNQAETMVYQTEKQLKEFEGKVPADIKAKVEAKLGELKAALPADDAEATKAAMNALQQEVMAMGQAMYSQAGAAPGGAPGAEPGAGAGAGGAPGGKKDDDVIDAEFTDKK

In paper PMC8894945:

Experiments:
[1] = molecular target: T1, triple HA-tagged uL5c (chloroplast ribosomal protein uL5c) (Chlamydomonas reinhardtii) (UniProt Q8HTL1); assay: affinity purification with mass spectrometry; triple-HA-tagged uL5c (chloroplast ribosomes) as bait; cells cross-linked in vivo with 0.37% formaldehyde for 10 min; cells at 25°C (control) or 15 min / 180 min at 40°C; enrichment over untagged control (one-sided t-test, FDR < 0.05, S0 = 1) in at least one condition
T1 sequence: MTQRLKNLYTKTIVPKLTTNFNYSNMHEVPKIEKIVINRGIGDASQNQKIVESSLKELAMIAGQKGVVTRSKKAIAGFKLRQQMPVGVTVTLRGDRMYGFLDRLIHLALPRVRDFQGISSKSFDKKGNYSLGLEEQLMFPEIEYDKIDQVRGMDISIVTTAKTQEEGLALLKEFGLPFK

[2] = molecular target: T1, triple HA-tagged uL5c (chloroplast ribosomal protein uL5c) (Chlamydomonas reinhardtii); assay: affinity purification with mass spectrometry; as a1, the control condition alone: cells kept at 25°C, no heat

Substance | binding [1] | binding [2]
TEF5 | binds | –
Pseudoglucan protein Cre03.g183300 | binds | –
HEL45 | binds | –
MDH5 | binds | –
TSF2 | binds | –
CGE1 | binds | –
AMA3 | binds | –
ZDS1 | binds | –
Rhodanese-like protein Cre01.g003550 | binds | –
DVR1 | binds | –
PRX5 | binds | –
APX1 (from UniProt O49822) | binds | –
CGL102/HCF244 | binds | –
CPLD20 | binds | –
RPI1 | binds | –
POR1 | binds | –
Riboflavin biosynthesis protein Cre14.g620350 | binds | –
rRNA Methyltransferase Cre17.g722250 | binds | –
Glutamine amidotransferase-like protein Cre01.g056331 | binds | –
Acclimation of Photosynthesis to the environment 1 (APE1) | binds | –
TPIC1 | binds | –
GAT1 | binds | –
RPOC2 (from UniProt Q7PCJ6 1-3120) | binds | –

Substance | binding [1] | binding [2]
HYDEF (from UniProt Q6PSL5) | binds | –
SBE1 | binds | –
SHK5 | binds | –
ZEP1 (from UniProt A0ACM8PZH8) | binds | –
Thiosulfate sulfurtransferase Cre13.g573250 | binds | –
CGL59/Y3IP1 | binds | no binding (only control conditions (25°C, no heat))
CRD1 | binds | –
CCB4 | binds | –
OHP2 | binds | –
FAD dependent oxidoreductase, photosynthesis Cre17.g744997 | binds | –
SSS2 | binds | –
PCC1 | binds | –
CGL27 | binds | –
Glycerol-3-phosphate acyltransferase Cre02.g143000 | binds | –
CTH1 | binds | –
Putative fructokinase Cre09.g387050 | binds | –
DXR1 | binds | –
SBP1 | binds | –
Aldose 1-epimerase Cre05.g234651 | binds | –
HEL62 | binds | –
RFK2 | binds | –
SSS1 | binds | –
AAT2 | binds | –

Substance | binding [1] | binding [2]
TAL2 | binds | –
Conserved in the Green Lineage 86 (CGL86) | binds | –
LHCA9 | binds | –
CGL38/LTD | binds | no binding (only control conditions (25°C, no heat))
FTRB | binds | –
ISA1 (from UniProt Q7X8Q2) | binds | –
RBGA | binds | –
MSH7 | binds | –
CYP97C3 | binds | –
Methionyl tRNA synthase Cre08.g364650 | binds | –
Thylakoid organization protein Cre14.g616600 | binds | –
GLN3 | binds | –
Glyoxylate/succinic semialdehyde reductase Cre06.g278148 | binds | –
ISA3 | binds | –
PDS1 | binds | –
CPN20 | binds | –
RNA helicase Cre03.g213649 | binds | –
CHLI1 | binds | –
PPR protein Cre14.g611950 | binds | –
THF1 | binds | –
Phosphatase Cre06.g284650 | binds | –
Rieske protein, Ferredoxin related Cre02.g093650 | binds | –
Glucose-6-phosphate 1-epimerase Cre16.g677450 | binds | –

Substance | binding [1] | binding [2]
HEM2 | binds | –
RH39 | binds | –
GET3B | binds | –
FLAV | binds | –
GWD2 | binds | –
ELIP1-like | binds | no binding (only control conditions (25°C, no heat))
FTSZ2 | binds | –
CPKR | binds | –
CPN11 | binds | –
GUN4 | binds | –
Ferredoxin/thioredoxin reductase subunit A Cre16.g687294 | binds | –
PRX6 | binds | –
Pyrophosphatase Cre10.g424100 | binds | –
Flavin reductase Cre06.g300700 | binds | –
RMT1 | binds | –
Phosphatase Cre08.g365632 | binds | –
BCC2 | binds | –
moxR ATPase Cre13.g603225 | binds | –
CPN23 | binds | –
CGLD8/PAB | binds | –
RAF2 | binds | –
CHLI2 | binds | –
CPN60B2 | binds | –

Substance | binding [1] | binding [2]
CPLD42 | binds | –
HRB/C-type RNA helicase Cre01.g024251 | binds | –
CDJ1 (from UniProt Q66YD3) | binds | –
Glutathione S-transferase Cre01.g044700 | binds | –
Stress response protein Cre15.g638400 | binds | –
FAD/NAD(P)-binding oxidoreductase Cre01.g005950 | binds | –
HSP22E | binds | –
ELIP2-like | binds | no binding (only control conditions (25°C, no heat))
trigger factor chaperone, TIG1 | binds | –
VTE3 (from UniProt Q6VPQ2) | binds | –
CPN60B1 | binds | –
HSP70B (from UniProt Q39603) | binds | –
Thioredoxin Cre17.g715500 | binds | –
ArfB | binds | –
4-Hydroxy-tetrahydrodipicolinate reductase Cre14.g627850 | binds | –
Peptidase Cre02.g083065 | binds | –
RBD1 | binds | –
Acylaminoacyl-peptidase Cre07.g313122 | binds | –
HCAR | binds | –
TEF4 | binds | –
NTR4 | binds | –
OPR2 | binds | –
FTSZ1 | binds | –

These are yes or no findings as the source states them, for the method shown. Binding seen in cells or lysates may run through a third protein. These calls come from enrichment with a bait or labelling near it, and not all partners need be listed. For some assays here: No binding means not detected with the bait. Tags and fused reporters may be left off the sequences shown.
